Data as given in PubChem BioAssay AID1508597 (Cure First, 2020)
Shown is a random part of the about 2,100 reagents, in one setting of the screen. 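Calls flag viability under 80% in either arm, not effects specific to rucaparib; the reference for percent is not stated.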 Entries without a mark were called inactive. Reagent sequences are not shown. Not given: the 100% reference.

Aim: 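Knock-downs altering ovarian cancer cell survival with or without PARP inhibitor rucaparib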 (primary screen)
Cells: human ovarian carcinoma lines grown from tumours: OCI-P5x (papillary serous) and OCI-C5x (clear cell)
Knock-down reagent: siRNA pool against human genes, 1.25 pmol siRNA per well
Timing: 72 h or 96 h, depending on the cell culture
Conditions: rucaparib 20 µM (about IC30) or vehicle, present until read-out
Rucaparib or vehicle: Vehicle
Cell line: OCI-C5x (clear cell)
Measurement: 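Luminescent ATP-based viability assay read 72 or 96 h after transfection, depending on culture, given as normalised percent viability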
Scale: viability, normalised: higher = more viable cells remaining
Active means: 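a well counts as a hit if its normalised viability is under 80 percent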
Meaning of the calls: active = viability under 80%; inactive = viability 80% or more

| target gene | technical replicate | viability, normalised (%) |
| --- | --- | --- |
| UBE2A | 1 | 57.6 (active) |
| UBE2A | 2 | 60 (active) |
| UBE2A | 3 | 57.3 (active) |
| PDK3 | 1 | 62.7 (active) |
| PDK3 | 2 | 60.7 (active) |
| PDK3 | 3 | 40.3 (active) |
| TDRKH | 1 | 47.4 (active) |
| TDRKH | 2 | 54.4 (active) |
| TDRKH | 3 | 43.8 (active) |
| SRMS | 1 | 66.3 (active) |
| SRMS | 2 | 59.8 (active) |
| SRMS | 3 | 67.8 (active) |
| MAEL | 1 | 55.6 (active) |
| MAEL | 2 | 78.5 (active) |
| MAEL | 3 | 68.9 (active) |
| DPH2 | 1 | 59.1 (active) |
| DPH2 | 2 | 61.1 (active) |
| DPH2 | 3 | 46.7 (active) |
| BAIAP2 | 1 | 37.6 (active) |
| BAIAP2 | 2 | 41.1 (active) |
| BAIAP2 | 3 | 36.3 (active) |
| CUL3 | 1 | 45.6 (active) |
| CUL3 | 2 | 63.3 (active) |
| CUL3 | 3 | 55.7 (active) |
| FAM131C | 1 | 76.8 (active) |
| FAM131C | 2 | 73.8 (active) |
| FAM131C | 3 | 63.8 (active) |
| NEK5 | 1 | 74 (active) |
| NEK5 | 2 | 63.9 (active) |
| NEK5 | 3 | 66.7 (active) |
| SFN | 1 | 36.2 (active) |
| SFN | 2 | 51.8 (active) |
| SFN | 3 | 56.2 (active) |
| EED | 1 | 52.1 (active) |
| EED | 2 | 37.9 (active) |
| EED | 3 | 57.5 (active) |
| DPY30 | 1 | 61.6 (active) |
| DPY30 | 2 | 57 (active) |
| DPY30 | 3 | 55.7 (active) |
| EPHB3 | 1 | 82.2 |
| EPHB3 | 2 | 48.8 (active) |
| EPHB3 | 3 | 56.3 (active) |
| PHF12 | 1 | 40.7 (active) |
| PHF12 | 2 | 54.6 (active) |
| PHF12 | 3 | 57.9 (active) |
| KAT7 | 1 | 48.3 (active) |
| KAT7 | 2 | 46.6 (active) |
| KAT7 | 3 | 29.7 (active) |
| PTTG3P | 1 | 58.4 (active) |
| PTTG3P | 2 | 54.1 (active) |
| PTTG3P | 3 | 78.3 (active) |
| MAGI1 | 1 | 47.8 (active) |
| MAGI1 | 2 | 61.5 (active) |
| MAGI1 | 3 | 33.8 (active) |
| ID4 | 1 | 41 (active) |
| ID4 | 2 | 46.7 (active) |
| ID4 | 3 | 29.4 (active) |
